# Source: the supplement of paper PMC6411743
# Amino acid sequences for entries named in this document (tags omitted). A change or cut given only in a name is not applied to a line headed by its entry.
# UniProt Q9HC07: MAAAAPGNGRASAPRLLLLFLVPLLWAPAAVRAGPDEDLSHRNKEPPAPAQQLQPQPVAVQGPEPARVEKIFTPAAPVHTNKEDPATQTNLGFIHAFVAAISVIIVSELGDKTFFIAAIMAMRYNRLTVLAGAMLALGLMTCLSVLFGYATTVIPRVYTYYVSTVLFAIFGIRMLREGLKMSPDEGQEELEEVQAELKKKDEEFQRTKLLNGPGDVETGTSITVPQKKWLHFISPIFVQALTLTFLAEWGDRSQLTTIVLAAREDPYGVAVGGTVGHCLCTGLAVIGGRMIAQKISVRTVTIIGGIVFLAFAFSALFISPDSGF
# UniProt Q9H0R4: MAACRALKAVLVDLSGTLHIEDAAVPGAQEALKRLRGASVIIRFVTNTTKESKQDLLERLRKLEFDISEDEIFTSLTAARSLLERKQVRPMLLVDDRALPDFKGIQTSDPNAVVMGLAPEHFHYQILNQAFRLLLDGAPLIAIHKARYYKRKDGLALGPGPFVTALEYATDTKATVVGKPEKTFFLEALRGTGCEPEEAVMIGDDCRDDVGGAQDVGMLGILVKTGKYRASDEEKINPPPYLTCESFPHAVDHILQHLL
# UniProt Q9H0W9: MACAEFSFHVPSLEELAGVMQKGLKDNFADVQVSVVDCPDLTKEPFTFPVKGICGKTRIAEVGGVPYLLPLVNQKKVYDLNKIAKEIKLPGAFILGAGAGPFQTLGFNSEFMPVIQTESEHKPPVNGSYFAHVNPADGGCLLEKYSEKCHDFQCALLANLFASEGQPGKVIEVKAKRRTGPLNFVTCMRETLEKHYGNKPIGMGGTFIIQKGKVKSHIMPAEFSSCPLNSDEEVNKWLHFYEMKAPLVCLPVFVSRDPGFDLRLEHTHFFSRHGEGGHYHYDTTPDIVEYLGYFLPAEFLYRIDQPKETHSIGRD
# UniProt Q9H2P9: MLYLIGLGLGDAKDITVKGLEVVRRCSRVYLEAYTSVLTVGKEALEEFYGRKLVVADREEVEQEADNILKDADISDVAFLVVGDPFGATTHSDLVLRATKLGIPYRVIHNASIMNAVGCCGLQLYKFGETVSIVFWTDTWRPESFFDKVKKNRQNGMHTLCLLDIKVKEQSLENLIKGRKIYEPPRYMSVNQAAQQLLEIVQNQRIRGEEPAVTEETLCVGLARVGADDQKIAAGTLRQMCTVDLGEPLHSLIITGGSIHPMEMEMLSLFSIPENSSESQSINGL
# UniProt Q9H446: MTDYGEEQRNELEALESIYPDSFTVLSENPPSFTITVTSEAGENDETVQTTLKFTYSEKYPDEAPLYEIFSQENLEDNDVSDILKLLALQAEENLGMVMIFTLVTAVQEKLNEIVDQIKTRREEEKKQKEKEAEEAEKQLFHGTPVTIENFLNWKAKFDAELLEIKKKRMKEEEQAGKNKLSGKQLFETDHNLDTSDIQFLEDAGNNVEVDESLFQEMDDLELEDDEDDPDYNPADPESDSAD
# UniProt Q9HAD4: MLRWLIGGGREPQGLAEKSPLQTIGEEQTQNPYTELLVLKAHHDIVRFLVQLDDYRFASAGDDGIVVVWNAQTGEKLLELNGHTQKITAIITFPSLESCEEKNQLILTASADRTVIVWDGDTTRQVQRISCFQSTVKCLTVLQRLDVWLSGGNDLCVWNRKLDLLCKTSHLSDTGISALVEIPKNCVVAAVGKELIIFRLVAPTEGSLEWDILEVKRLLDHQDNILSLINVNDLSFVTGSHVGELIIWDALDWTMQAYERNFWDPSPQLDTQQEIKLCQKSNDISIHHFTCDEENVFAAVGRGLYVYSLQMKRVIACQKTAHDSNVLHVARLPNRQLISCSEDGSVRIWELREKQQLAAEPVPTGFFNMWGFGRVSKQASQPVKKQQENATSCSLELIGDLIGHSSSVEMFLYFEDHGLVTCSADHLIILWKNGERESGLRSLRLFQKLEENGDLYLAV
# UniProt Q9HAN9, whole entry: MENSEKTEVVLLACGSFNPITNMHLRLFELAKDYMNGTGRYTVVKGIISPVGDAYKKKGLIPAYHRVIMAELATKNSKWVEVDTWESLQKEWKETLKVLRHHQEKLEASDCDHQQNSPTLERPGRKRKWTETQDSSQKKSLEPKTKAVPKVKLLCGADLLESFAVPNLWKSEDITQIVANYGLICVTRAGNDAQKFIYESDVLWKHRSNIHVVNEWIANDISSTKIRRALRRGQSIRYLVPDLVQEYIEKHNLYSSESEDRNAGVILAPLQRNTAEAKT
# UniProt Q9C0B7: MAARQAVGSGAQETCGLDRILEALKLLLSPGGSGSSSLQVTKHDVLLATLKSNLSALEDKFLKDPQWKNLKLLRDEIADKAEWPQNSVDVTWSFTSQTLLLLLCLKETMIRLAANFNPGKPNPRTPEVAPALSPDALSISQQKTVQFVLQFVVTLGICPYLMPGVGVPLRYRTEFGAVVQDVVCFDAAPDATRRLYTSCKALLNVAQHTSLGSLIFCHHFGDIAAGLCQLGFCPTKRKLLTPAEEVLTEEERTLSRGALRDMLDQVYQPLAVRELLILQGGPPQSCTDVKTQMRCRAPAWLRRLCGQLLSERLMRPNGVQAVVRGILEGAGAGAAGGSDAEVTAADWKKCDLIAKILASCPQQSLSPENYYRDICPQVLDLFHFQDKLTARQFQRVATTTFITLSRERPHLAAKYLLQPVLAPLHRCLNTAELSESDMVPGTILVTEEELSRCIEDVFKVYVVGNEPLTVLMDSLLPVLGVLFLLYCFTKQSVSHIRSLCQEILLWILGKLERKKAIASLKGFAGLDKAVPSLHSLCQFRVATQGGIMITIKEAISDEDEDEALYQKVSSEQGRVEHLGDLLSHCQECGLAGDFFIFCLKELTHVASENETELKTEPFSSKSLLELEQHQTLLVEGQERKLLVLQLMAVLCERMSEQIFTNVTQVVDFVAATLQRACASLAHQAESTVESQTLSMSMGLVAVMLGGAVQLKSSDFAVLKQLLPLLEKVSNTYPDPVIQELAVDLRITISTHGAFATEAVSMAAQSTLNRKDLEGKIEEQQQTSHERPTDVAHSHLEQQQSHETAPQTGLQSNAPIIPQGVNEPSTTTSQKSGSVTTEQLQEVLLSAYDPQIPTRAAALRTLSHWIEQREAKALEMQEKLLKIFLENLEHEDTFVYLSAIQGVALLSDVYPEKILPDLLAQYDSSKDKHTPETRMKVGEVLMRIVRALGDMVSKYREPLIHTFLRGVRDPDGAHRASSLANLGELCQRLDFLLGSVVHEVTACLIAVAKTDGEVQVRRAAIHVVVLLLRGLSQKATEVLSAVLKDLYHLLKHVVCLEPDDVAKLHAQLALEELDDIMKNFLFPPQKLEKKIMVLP
# UniProt Q9H4Z3: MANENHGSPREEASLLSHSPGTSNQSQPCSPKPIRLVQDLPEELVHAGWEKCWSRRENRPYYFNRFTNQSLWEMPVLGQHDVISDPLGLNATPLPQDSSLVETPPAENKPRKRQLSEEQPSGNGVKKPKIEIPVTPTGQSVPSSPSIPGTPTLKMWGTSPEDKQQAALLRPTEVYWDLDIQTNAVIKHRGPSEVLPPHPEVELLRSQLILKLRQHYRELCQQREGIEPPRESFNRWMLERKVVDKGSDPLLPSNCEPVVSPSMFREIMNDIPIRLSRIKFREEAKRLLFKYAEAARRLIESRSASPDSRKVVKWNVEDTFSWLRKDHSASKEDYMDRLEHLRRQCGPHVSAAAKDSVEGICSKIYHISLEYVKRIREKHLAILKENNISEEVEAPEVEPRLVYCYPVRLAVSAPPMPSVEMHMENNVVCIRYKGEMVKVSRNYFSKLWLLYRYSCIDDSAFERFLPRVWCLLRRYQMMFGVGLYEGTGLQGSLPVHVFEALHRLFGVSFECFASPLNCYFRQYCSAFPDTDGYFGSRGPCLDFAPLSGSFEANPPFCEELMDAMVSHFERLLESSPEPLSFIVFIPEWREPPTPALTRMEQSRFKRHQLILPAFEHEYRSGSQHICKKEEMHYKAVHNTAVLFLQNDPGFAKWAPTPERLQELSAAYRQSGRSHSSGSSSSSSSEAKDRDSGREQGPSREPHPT
# UniProt Q9HBH5: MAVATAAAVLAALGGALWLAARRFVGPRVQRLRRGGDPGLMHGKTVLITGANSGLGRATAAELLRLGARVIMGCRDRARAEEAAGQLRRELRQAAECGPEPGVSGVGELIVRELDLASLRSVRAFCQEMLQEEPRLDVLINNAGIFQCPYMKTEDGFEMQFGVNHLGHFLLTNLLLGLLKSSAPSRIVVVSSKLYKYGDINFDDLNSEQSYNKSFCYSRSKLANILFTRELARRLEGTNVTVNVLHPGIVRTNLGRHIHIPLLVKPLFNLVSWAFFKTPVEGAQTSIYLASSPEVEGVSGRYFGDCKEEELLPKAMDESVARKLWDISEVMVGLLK
# UniProt Q9H993: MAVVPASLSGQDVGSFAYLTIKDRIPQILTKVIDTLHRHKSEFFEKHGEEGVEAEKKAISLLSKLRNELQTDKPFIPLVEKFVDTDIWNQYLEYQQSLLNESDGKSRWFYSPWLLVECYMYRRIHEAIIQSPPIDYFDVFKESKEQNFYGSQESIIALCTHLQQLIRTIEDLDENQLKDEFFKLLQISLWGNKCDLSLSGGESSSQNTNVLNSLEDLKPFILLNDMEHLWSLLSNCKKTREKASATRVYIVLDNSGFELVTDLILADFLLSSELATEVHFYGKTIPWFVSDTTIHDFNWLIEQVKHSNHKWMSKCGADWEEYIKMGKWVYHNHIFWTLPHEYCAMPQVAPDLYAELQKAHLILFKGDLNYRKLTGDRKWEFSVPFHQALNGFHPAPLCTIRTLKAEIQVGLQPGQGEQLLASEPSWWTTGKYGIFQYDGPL
# UniProt Q9H5N1: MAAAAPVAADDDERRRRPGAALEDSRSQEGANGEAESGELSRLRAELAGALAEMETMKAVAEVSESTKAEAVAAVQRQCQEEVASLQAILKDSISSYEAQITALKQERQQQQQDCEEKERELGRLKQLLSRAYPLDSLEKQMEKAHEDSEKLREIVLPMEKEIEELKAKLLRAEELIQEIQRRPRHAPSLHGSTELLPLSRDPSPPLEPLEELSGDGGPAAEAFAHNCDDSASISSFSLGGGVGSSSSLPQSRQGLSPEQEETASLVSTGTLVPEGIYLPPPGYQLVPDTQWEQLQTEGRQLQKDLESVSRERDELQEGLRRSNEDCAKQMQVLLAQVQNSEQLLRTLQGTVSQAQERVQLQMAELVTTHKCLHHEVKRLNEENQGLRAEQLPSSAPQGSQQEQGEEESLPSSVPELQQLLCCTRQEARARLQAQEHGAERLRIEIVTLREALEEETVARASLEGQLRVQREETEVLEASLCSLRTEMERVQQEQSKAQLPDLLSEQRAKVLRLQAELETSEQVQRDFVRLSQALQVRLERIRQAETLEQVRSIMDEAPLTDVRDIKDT
# UniProt Q9H845: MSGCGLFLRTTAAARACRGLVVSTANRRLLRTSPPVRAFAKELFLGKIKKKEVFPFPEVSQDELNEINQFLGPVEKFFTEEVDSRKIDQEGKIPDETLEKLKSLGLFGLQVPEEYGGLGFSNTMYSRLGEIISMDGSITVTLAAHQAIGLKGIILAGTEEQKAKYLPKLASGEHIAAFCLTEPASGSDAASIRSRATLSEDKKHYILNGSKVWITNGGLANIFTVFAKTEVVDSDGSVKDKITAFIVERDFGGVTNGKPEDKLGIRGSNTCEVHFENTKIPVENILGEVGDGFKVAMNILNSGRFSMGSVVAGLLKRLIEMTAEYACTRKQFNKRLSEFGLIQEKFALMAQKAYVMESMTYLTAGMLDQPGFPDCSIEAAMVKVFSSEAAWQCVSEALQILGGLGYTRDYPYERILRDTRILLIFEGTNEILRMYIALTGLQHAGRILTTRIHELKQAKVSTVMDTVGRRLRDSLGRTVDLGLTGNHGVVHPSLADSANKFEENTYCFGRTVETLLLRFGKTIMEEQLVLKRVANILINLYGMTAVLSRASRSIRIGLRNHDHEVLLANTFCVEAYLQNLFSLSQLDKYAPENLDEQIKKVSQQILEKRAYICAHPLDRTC
# UniProt Q9HAJ7: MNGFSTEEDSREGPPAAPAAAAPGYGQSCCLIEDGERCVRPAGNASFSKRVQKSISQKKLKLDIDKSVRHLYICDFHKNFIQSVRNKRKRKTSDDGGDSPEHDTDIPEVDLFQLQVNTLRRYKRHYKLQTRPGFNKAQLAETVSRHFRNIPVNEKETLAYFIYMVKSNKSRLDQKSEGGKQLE
# UniProt Q9H7H0: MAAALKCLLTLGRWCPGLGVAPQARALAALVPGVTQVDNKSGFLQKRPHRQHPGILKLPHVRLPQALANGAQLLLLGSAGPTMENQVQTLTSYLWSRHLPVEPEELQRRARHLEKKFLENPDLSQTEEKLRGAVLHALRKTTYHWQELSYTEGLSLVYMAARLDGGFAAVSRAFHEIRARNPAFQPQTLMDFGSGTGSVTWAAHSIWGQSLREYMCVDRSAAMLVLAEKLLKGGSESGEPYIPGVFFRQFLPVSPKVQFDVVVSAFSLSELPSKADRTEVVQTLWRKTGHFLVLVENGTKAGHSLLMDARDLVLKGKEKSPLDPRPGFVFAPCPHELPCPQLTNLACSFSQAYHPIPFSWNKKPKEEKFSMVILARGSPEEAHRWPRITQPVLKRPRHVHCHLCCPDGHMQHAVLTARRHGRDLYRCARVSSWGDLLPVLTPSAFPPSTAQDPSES
# ± gives the standard deviation of the averaged measurements. The entries are a selection whose mix differs from that of the whole data set. Most values lie at the level of the controls, where differences are scatter.
# Compound: Nc1ncnc2c1ncn2[C@@H]1O[C@H](COP(=O)(O)OP(=O)(O)OP(=O)(O)O)[C@@H](O)[C@H]1O [adenosine triphosphate]
# Test: NP40-soluble protein abundance relative to vehicle (solubility fold change) (ratio); higher = more soluble protein in presence of ATP
# Outline: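 Data come from three independent experiments in which Dounce-homogenised Jurkat crude lysate was treated at eight concentrations from 0.1 to 10 mM. Treatment ran 10 min at room temperature and then 3 min at 37 °C, after which 0.8% NP40 and benzonase were added for 60 min at 4 °C before ultracentrifugation. The supernatant underwent TMT labelling and LC-MS/MS, and vsn-normalised intensities were expressed as fold change against the detergent-processed vehicle in each replicate.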
Target,NP40-soluble protein abundance (concentration: 0.1mM),NP40-soluble protein abundance (concentration: 0.5mM),NP40-soluble protein abundance (concentration: 1mM),NP40-soluble protein abundance (concentration: 2mM),NP40-soluble protein abundance (concentration: 4mM),NP40-soluble protein abundance (concentration: 6mM),NP40-soluble protein abundance (concentration: 8mM),NP40-soluble protein abundance (concentration: 10mM)
TMEM165 (UniProt Q9HC07),0.962 ± 0.061,0.969 ± 0.11,,,,,,
UniProt Q9H0R4 and related entries,0.986 ± 0.016,1.02 ± 0.033,,,,,,
UniProt Q9H0W9 and related entries,1.03 ± 0.029,1.04 ± 0.063,,,,,,
UniProt Q9H2P9 and related entries,1.02 ± 0.06,0.994 ± 0.011,,,,,,
UniProt Q9C0G0 and related entries,1.02 ± 0.059,0.973 ± 0.17,,,,,,
UniProt Q9H446 and related entries,1.01 ± 0.06,1.04 ± 0.1,,,,,,
WDR41 (UniProt Q9HAD4),1.08 ± 0.058,1.04 ± 0.019,1.03 ± 0.026,0.994 ± 0.08,1.08 ± 0.062,1 ± 0.033,1 ± 0.065,1.01 ± 0.043
CHD8 (UniProt Q9HCK8),1 ± 0.011,1.02 ± 0.039,,,,,,
NMNAT1 (UniProt Q9HAN9),1.1 ± 0.15,1.06 ± 0.086,1.33 ± 0.36,3.44 ± 2.5,3.91 ± 2.9,4.35 ± 3.5,3.99 ± 2.9,3.99 ± 3
UniProt Q9C0B7,0.996 ± 0.13,1.07 ± 0.1,,,,,,
VPS37B (UniProt Q9H9H4),0.951 ± 0.11,0.894 ± 0.1,0.992 ± 0.11,0.958 ± 0.12,0.967 ± 0.057,0.983 ± 0.12,0.946 ± 0.073,0.887 ± 0.13
NCOA5 (UniProt Q9HCD5),1.004 ± 0.0032,1.039 ± 0.0075,1.09 ± 0.031,1.22 ± 0.056,1.49 ± 0.062,1.85 ± 0.12,2.23 ± 0.12,2.76 ± 0.14
PCIF1 (UniProt Q9H4Z3),1.02 ± 0.027,1 ± 0.034,,,,,,
UniProt Q9H813 and related entries,1.03 ± 0.091,0.991 ± 0.046,,,,,,
UniProt Q9H6R4 and related entries,0.982 ± 0.022,0.919 ± 0.05,1.08 ± 0.049,1.03 ± 0.018,1.28 ± 0.027,1.31 ± 0.041,1.39 ± 0.15,1.72 ± 0.15
RDH14 (UniProt Q9HBH5),1.03 ± 0.031,1.03 ± 0.013,0.997 ± 0.049,1.01 ± 0.0098,1.03 ± 0.043,0.998 ± 0.056,1.05 ± 0.037,1.01 ± 0.035
ATP13A1 (UniProt Q9HD20),1.05 ± 0.084,1.05 ± 0.076,1.01 ± 0.1,1 ± 0.06,1.01 ± 0.064,0.951 ± 0.086,1 ± 0.041,0.978 ± 0.03
SMYD3 (UniProt Q9H7B4),1.09 ± 0.13,1.07 ± 0.093,,,,,,
UniProt Q9H4A3 and related entries,1.01 ± 0.02,1.03 ± 0.063,,,,,,
TM9SF3 (UniProt Q9HD45),1.05 ± 0.085,1.04 ± 0.073,1.04 ± 0.12,1.03 ± 0.1,1.01 ± 0.079,0.946 ± 0.12,1.05 ± 0.099,1.01 ± 0.097

Target,NP40-soluble protein abundance (concentration: 0.1mM),NP40-soluble protein abundance (concentration: 0.5mM),NP40-soluble protein abundance (concentration: 1mM),NP40-soluble protein abundance (concentration: 2mM),NP40-soluble protein abundance (concentration: 4mM),NP40-soluble protein abundance (concentration: 6mM),NP40-soluble protein abundance (concentration: 8mM),NP40-soluble protein abundance (concentration: 10mM)
UniProt Q9H993,1.08 ± 0.085,1.06 ± 0.049,1.08 ± 0.068,1.05 ± 0.06,1.02 ± 0.039,0.991 ± 0.072,1.04 ± 0.047,1.01 ± 0.053
DHX33 (UniProt Q9H6R0),1.02 ± 0.026,1.01 ± 0.024,1.04 ± 0.059,1.1 ± 0.012,1.349 ± 0.0092,1.29 ± 0.089,1.44 ± 0.18,1.51 ± 0.2
UniProt Q9HC36,0.995 ± 0.04,1.1 ± 0.099,1.11 ± 0.06,1.29 ± 0.068,1.57 ± 0.13,1.8 ± 0.21,2.03 ± 0.2,2.37 ± 0.32
RABEP2 (UniProt Q9H5N1),0.982 ± 0.04,0.929 ± 0.031,0.967 ± 0.062,0.941 ± 0.036,0.929 ± 0.035,0.956 ± 0.046,0.905 ± 0.011,0.901 ± 0.039
UniProt Q9H3Z4 and related entries,0.971 ± 0.076,0.934 ± 0.042,,,,,,
CHMP1A (UniProt Q9HD42),1.05 ± 0.11,1.07 ± 0.17,,,,,,
WDR76 (UniProt Q9H967),1.03 ± 0.035,1.08 ± 0.12,,,,,,
UniProt Q9H9A5 and related entries,0.992 ± 0.023,1.1 ± 0.081,,,,,,
UniProt Q9H0G5,1.009 ± 0.0043,1.08 ± 0.048,,,,,,
UniProt Q9GZP4,1.01 ± 0.075,1 ± 0.063,,,,,,
ACAD9 (UniProt Q9H845),1.02 ± 0.068,1.04 ± 0.046,,,,,,
UniProt Q9NNW7 and related entries,1.01 ± 0.043,0.964 ± 0.039,1.01 ± 0.04,0.942 ± 0.011,0.983 ± 0.067,0.951 ± 0.02,0.949 ± 0.057,0.958 ± 0.1
SAP30L (UniProt Q9HAJ7),1.01 ± 0.045,1 ± 0.12,1.0942 ± 0.00039,1.12 ± 0.069,1.13 ± 0.092,1.185 ± 0.0041,1.11 ± 0.13,1.07 ± 0.082
UniProt Q9HCM7,1.1317 ± 0.0011,1.66 ± 0.13,1.71 ± 0.25,1.84 ± 0.31,2.2 ± 0.52,2.13 ± 0.52,2.62 ± 0.69,2.78 ± 0.79
UniProt Q9GZP9 and related entries,0.982 ± 0.071,0.939 ± 0.057,0.935 ± 0.091,0.903 ± 0.083,0.946 ± 0.13,0.887 ± 0.12,0.944 ± 0.068,0.916 ± 0.11
COMMD4 (UniProt Q9H0A8),0.951 ± 0.029,0.963 ± 0.055,,,,,,
FAM117A (UniProt Q9C073),1.01 ± 0.03,1 ± 0.037,1.04 ± 0.03,0.992 ± 0.02,0.999 ± 0.039,1.01 ± 0.025,0.972 ± 0.053,0.972 ± 0.024
UniProt Q9H974 and related entries,1.06 ± 0.071,1.02 ± 0.06,1.03 ± 0.044,1 ± 0.035,1 ± 0.029,0.996 ± 0.044,1.02 ± 0.016,0.991 ± 0.025
UniProt Q9H7H0 and related entries,0.961 ± 0.051,1.06 ± 0.12,,,,,,
UniProt Q9H0S4 and related entries,1.09 ± 0.013,1.11 ± 0.022,1.18 ± 0.12,1.23 ± 0.072,1.44 ± 0.03,1.5 ± 0.09,1.79 ± 0.073,1.99 ± 0.11

# Rewritten with bars between the fields: entries from further up.
Target | NP40-soluble protein abundance (concentration: 0.1mM) | NP40-soluble protein abundance (concentration: 0.5mM) | NP40-soluble protein abundance (concentration: 1mM) | NP40-soluble protein abundance (concentration: 2mM) | NP40-soluble protein abundance (concentration: 4mM) | NP40-soluble protein abundance (concentration: 6mM) | NP40-soluble protein abundance (concentration: 8mM) | NP40-soluble protein abundance (concentration: 10mM)
TMEM165 (UniProt Q9HC07) | 0.962 ± 0.061 | 0.969 ± 0.11 |  |  |  |  |  | 
UniProt Q9H2P9 and related entries | 1.02 ± 0.06 | 0.994 ± 0.011 |  |  |  |  |  | 
PCIF1 (UniProt Q9H4Z3) | 1.02 ± 0.027 | 1 ± 0.034 |  |  |  |  |  | 
UniProt Q9H6R4 and related entries | 0.982 ± 0.022 | 0.919 ± 0.05 | 1.08 ± 0.049 | 1.03 ± 0.018 | 1.28 ± 0.027 | 1.31 ± 0.041 | 1.39 ± 0.15 | 1.72 ± 0.15
SMYD3 (UniProt Q9H7B4) | 1.09 ± 0.13 | 1.07 ± 0.093 |  |  |  |  |  | 
UniProt Q9HC36 | 0.995 ± 0.04 | 1.1 ± 0.099 | 1.11 ± 0.06 | 1.29 ± 0.068 | 1.57 ± 0.13 | 1.8 ± 0.21 | 2.03 ± 0.2 | 2.37 ± 0.32
UniProt Q9H3Z4 and related entries | 0.971 ± 0.076 | 0.934 ± 0.042 |  |  |  |  |  | 
CHMP1A (UniProt Q9HD42) | 1.05 ± 0.11 | 1.07 ± 0.17 |  |  |  |  |  | 
WDR76 (UniProt Q9H967) | 1.03 ± 0.035 | 1.08 ± 0.12 |  |  |  |  |  | 
UniProt Q9H0G5 | 1.009 ± 0.0043 | 1.08 ± 0.048 |  |  |  |  |  | 
ACAD9 (UniProt Q9H845) | 1.02 ± 0.068 | 1.04 ± 0.046 |  |  |  |  |  | 
UniProt Q9NNW7 and related entries | 1.01 ± 0.043 | 0.964 ± 0.039 | 1.01 ± 0.04 | 0.942 ± 0.011 | 0.983 ± 0.067 | 0.951 ± 0.02 | 0.949 ± 0.057 | 0.958 ± 0.1
